# Test results from the supplement of paper PMC7824004.
# This is one part of the list. The data scatter; read single values as rough.
# Tested on: Candida albicans SN425
# Test: biofilm OD600 B-score; higher = more biofilm (less inhibition)
# Settings: 10 µM; assay detail: High-throughput adherence inhibition optical density biofilm assay with C. albicans SN425 in RPMI-1640/MOPS pH 7.0, 384-well plates. …
# Experimental: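 High-throughput adherence inhibition optical density biofilm assay with C. albicans SN425 in RPMI-1640/MOPS pH 7.0, 384-well plates. Compound (10 µM) was present only during the 90 min adherence step, then washed out, and the biofilm grew 24 h without compound. Biofilm was read as OD600 after removing the media. Scores are the difference from the mean in standard deviations and the plate B-score.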
row,Structure (SMILES),biofilm OD600 B-score
1,CS(=O)(=O)Nc1nc2ccc(Cl)cc2s1,2.21
2,CCc1cccc(OCCN2CCCC2)c1,-0.0182
3,N#CC(c1ccc(O)cc1)N1CCOCC1 (stereo not given),1.55
4,O=C(CSc1nc(O)cc(=O)[nH]1)N1CCOCC1,-1.32
5,Nc1ccc2c(c1)C(=O)N(CC1CCCO1)C2=O (stereo not given),-0.913
6,Cc1cc(C)c(OCC(O)CNC(C)(C)C)c(C)c1 (stereo not given),-0.84
7,CC(=O)Nc1nc(-c2c(F)c(F)c(F)c(F)c2F)cs1,-0.595
8,Cc1csc(NC(=O)c2ccc(F)cc2)n1,1.19
9,C=CCn1c2ccccc2n2nc(C)c(=O)nc12,4.13
10,Cc1ccc(C(=O)N2CCC(C(=O)NCc3ccco3)CC2)cc1,1.13
11,CCCOc1ccc(Cn2c(CO)nc3ccccc32)cc1,-0.0773
12,C/C=C(\C)CN1CCN(c2ccccc2F)CC1,-2.55
13,c1ccc(C(CNc2ncccn2)c2ccccc2)cc1,-0.24
14,CC(C(N)=O)N(c1ccc(Oc2ccccc2)cc1)S(C)(=O)=O (stereo not given),1.63
15,COc1ccc(C(C)NC(=O)C2CC2)cc1OC (stereo not given),-0.492
16,C/C=C(\C)CN1CCN(Cc2ccccc2)CC1,-1.55
17,COc1ccc(NC(=O)CSc2nc(O)c(Cc3ccccc3)c(=O)[nH]2)cc1,0.0504
18,Cc1ccc(Nc2ccc(C(=O)O)cc2N)cc1,-0.996
19,COc1ccc(C(=O)NCCc2ccc(F)cc2)c(OC)c1,-1.31
20,CS(=O)(=O)NCCSc1ccccc1,-0.58

row,Structure (SMILES),biofilm OD600 B-score
1,COc1ccc(CNC(=O)CCc2ccccc2)cc1OC,-3.86
2,C=CCSc1nc2ccc(OC)cc2[nH]1,-0.437
3,CCc1cc2c(=O)n(N)c(CCC(=O)O)nc2s1,-0.0737
4,N#Cc1nc(-c2ccccc2)cc(-c2ccccc2)n1,0.869
5,CN(CC(=O)Nc1cccc(Cl)c1)S(=O)(=O)c1ccccc1,1.54
6,O=C(NCc1ccccn1)NC1CCCCC1,4.13
7,CCN(CCN(C)C)CC1CC=CCC1 (stereo not given),1.36
8,Cc1nc(N)nc2[nH]c(=O)n(-c3ccccc3)c(=O)c12,0.988
9,CC(C)C(=O)Nc1cccc(C(=O)Nc2cccc(O)c2)c1,-1.44
10,O=C(Nc1ccc(Cl)cc1F)c1cnccn1,0.0218
11,CCOc1ccc(C(=O)N2CCN(c3ncccn3)CC2)cc1,-1.05
12,CSc1cccc(NS(=O)(=O)c2ccc(NC(C)=O)cc2)c1,0.107
13,OCC(O)CN(c1ccccc1)c1ccccc1 (stereo not given),-1.35
14,CCc1ccc(N(CC(=O)N2CCOCC2)S(C)(=O)=O)cc1,0.236
15,O=C(NCC(=O)N1CCOCC1)C1CCCCC1,0.474
16,Cc1ccc(CN2CCN(Cc3ccccc3)CC2)o1,-2.05
17,CCOC(=O)N1CCN(CC2CC=CCC2)CC1 (stereo not given),-1.01
18,O=C(NCc1ccco1)N1CCOCC1,-1.3
19,CSc1ccc(CN(C)C2CCN(C)CC2)cc1,-0.203
20,Cc1cc(NC(=O)Nc2ccc(Cl)c(Cl)c2)no1,2.35

# Gathered by group, the entries above containing a furan ring, fused or not (3)
row,Structure (SMILES),biofilm OD600 B-score
10,Cc1ccc(C(=O)N2CCC(C(=O)NCc3ccco3)CC2)cc1,1.13
16,Cc1ccc(CN2CCN(Cc3ccccc3)CC2)o1,-2.05
18,O=C(NCc1ccco1)N1CCOCC1,-1.3
